PubChem BioAssay AID504784, Drosophila RNAi Screening Center | 2011

Purpose: 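Genome-wide knock-down for genes giving too much or too little stored lipid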 (primary screen)
Cells: Drosophila Kc167 embryonic cells
Reagents: long dsRNA against Drosophila genes, about 250 ng dsRNA per well
Time to read-out: 4 days
Conditions: cells fed 400 µM oleic acid bound to BSA
Measured: 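Cells imaged and segmented; ratio of lipid droplet area to nuclear area, log-transformed, then normalised as a B-score over the screen; higher means more stored lipid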
Scale: droplet/nuclear area B-score: higher = more stored lipid (overstorage)
The deposit covers about 17,000 reagents; shown is a random part of those that have a named target and a result. 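Each column is one replicate's B-score; the combined score over replicates was not deposited, so single values may mislead.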 The numbers tell different reagents against one gene apart. A plus sign joins genes that one reagent is predicted to hit.

The first 2 records, ahead of the listing:
gene	dsRNA no.	droplet/nuclear area B-score, replicate 1	droplet/nuclear area B-score, replicate 2	droplet/nuclear area B-score, replicate 3
slmb (supernumerary limbs)	1	0.269	-0.686	
CG12895	1	0.307	0.16	

The list itself, from the first entry:
gene	dsRNA no.	droplet/nuclear area B-score, replicate 1	droplet/nuclear area B-score, replicate 2	droplet/nuclear area B-score, replicate 3
slmb (supernumerary limbs)	1	0.269	-0.686	
CG12895	1	0.307	0.16	
CG34282	1	0.982	-0.00211	
CG11970	1	1.36	-1.1	
Muc18B (Mucin 18B)	1	1.49	-1.38	
tzn (tenzing norgay)	1	-4.03	-2.76	2.63
CG10969	1	-0.327	-0.682	
CG11999	1	-0.0827	1.58	
CG30394	1	-1.74	0.00213	
CG30394	2	0.0456	-2.55	
dome (domeless)	1	-1.51	0.633	
Spn53F (Serpin 53F)	1	0.766	-0.678	
Hpr1	1	-0.0739	-0.0128	
Sidpn (similar to Deadpan)	1	-2.53	-0.922	
7B2	1	-0.0958	0.56	
CG7741	1	-1.19	0.55	
CG31103	1	1.48	0.247	
CG5895	1	0.631	-0.492	
Uqcc1 + CG9948	1	0.617	0.887	
Spn77Bb + Spn77Bc	1	-0.694	-0.079	
Spn77Bb + Spn77Bc	2	-0.098	-0.247	
CG9004	1	-0.234	-0.0429	
CG5984	1	-1.04	-1.16	
CG32202	1	-2.29	-1.73	
CG32683	1	-0.934	1.39	-0.885
CG32683	2	1.46	-0.199	0.39
CG32683	3	0.933	1.44	1.25
CG9029	1	0.0473	-0.133	
CG15529	1	-0.37	2.33	
Atg1 (Autophagy-related 1)	1	0.285	0.704	
Atg1 (Autophagy-related 1)	2	0.407	0.717	
Grip163	1	-0.406	0.13	
Rnp4F (RNA-binding protein 4F)	1	-0.608	-1.19	-1.1
CG12883	1	-1.02	-0.246	
RIOK1 (RIO kinase 1)	1	-0.0133	1.66	
CASK	1	-0.825	-0.505	0.52
CASK	2	0.118	-0.59	
CASK	3	0.0296	0.102	
CASK	4	-0.258	-0.0391	
Coq5 (Coenzyme Q5)	1	-0.882	-0.795	0.525
Coq5 (Coenzyme Q5)	2	-2	0.171	
Chchd2 (Coiled-coil-helix-coiled-coil-helix domain containing 2)	1	0.538	1.06	-0.674
PH4alphaMP (prolyl-4-hydroxylase-alpha MP)	1	0.576	-0.566	
eca (eclair)	1	-1	2.01	
Obp56d (Odorant-binding protein 56d)	1	0.971	-1.61	
Pep (Protein on ecdysone puffs)	1	-2.35	-2.59	-1.52
grh (grainy head)	1	-0.194	1.94	
grh (grainy head)	2	-1.32	0.0279	
grh (grainy head)	3	-0.33	-0.0469	
grh (grainy head)	4	1.46	-0.734	
PrBP (Prenyl-binding protein)	1	2.57	-1.53	
CG42613	1	-0.0253	0.629	
CG42613	2	-0.118	-2.19	
CG42613	3	1.41	-3.28	
wac (wee Augmin)	1	0.23	-1.54	
CG13314	1	-0.168	-0.284	
